According to PubChem BioAssay AID2517 (National Center for Advancing Translational Sciences (NCATS), 2010):
Out of some 350,000 compounds screened, about 1,200 (0.34%) were called active. Inconclusive results, whose numbers are uncertain, are shown with a selection of clear calls. The call rests on the fitted dose curve; in most records, active means well fitted inhibition curve with a large enough effect; inconclusive means small, poorly fitted or top-dose-only effect; inactive means no such curve, though single readings can be large or run the other way. Where the call is inconclusive, the potency comes from a doubtful curve fit.

The chains behind the UniProt entries cited, without tags or fusion partners.
UniProt P27695, whole entry, looked up: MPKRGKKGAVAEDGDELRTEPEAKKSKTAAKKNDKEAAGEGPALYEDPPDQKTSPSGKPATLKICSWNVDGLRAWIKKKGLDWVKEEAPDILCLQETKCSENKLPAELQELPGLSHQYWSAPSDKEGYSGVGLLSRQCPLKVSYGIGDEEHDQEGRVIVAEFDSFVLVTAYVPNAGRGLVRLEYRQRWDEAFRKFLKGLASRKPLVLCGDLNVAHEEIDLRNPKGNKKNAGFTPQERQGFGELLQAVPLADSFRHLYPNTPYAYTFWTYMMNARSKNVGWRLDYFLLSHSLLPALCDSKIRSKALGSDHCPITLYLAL

What follows are compounds tested against DNA repair nuclease/redox regulator APEX1 (Homo sapiens) (UniProt P27695) (assay: qHTS Assay for Inhibitors of the Human Apurinic/apyrimidinic Endonuclease 1 (APE1)). Conditions: recombinant APE1, TAMRA/BHQ-2 abasic DNA cleavage fluorescence; activity change, negative = inhibition: at 65.8 µM (top of the series).
In short: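 Substrate: short duplex with […] THF abasic site, 5'-TAMRA and 3'-BHQ-2, 50 nM final. APE1 at 0.75 nM, preincubated 15 min RT with compound. Fluorescence increase from first to third read measured activity.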
Further: nearly all actives have a fitted effect of over 55% in size.
Potency means the concentration at half of the fitted maximal effect.
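Wherever activity change, negative = inhibition is given: plate controls were vehicle for no effect and reference inhibitor for full effect.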

| Structure (SMILES) | activity change, negative = inhibition | Potency |
| --- | --- | --- |
| C[C@H]1C(=O)N(S(=O)(=O)c2ccccc2[N+](=O)[O-])[C@H]1c1ccc(-c2ccccc2)cc1 | inactive: 2.64% |  |
| CCCOc1ccc(/C(O)=C2/C(=O)C(=O)N(CCCN3CCOCC3)C2c2ccncc2)cc1 (stereo unspecified) |  | inconclusive: 31.6 µM [inhibitor, single point] |
| Cc1noc(C)c1NC(=O)N(C)C[C@H]1Oc2c(NS(=O)(=O)c3cn(C)cn3)cccc2C(=O)N([C@H](C)CO)C[C@@H]1C | inactive: -5.13% |  |
| CC1CN(S(=O)(=O)c2cn(C)c(=O)n(C)c2=O)CC(C)O1 (stereo unspecified) |  | inconclusive: 0.355 µM [inhibitor, partial curve, poor fit] |
| CN(/N=C/c1cc(Cl)cc(Cl)c1O)c1c(Cl)cccc1[N+](=O)[O-] |  | inconclusive: 5.01 µM [inhibitor, partial curve] |
| Cc1cccc(OCc2nnc(SC(C)C(=O)O)n2Cc2ccccc2)c1 (stereo unspecified) | inactive: -1.32% |  |
| Cc1ccc(/C=N/NC(=O)Cc2c[nH]c3ccccc23)c(C)c1 | inactive: 23.5% |  |
| COc1ccc2c(=O)c(Oc3ccc(C(=O)O)cc3)c(C(F)(F)F)oc2c1 |  | inconclusive: 4.47 µM [inhibitor, single point] |
| O=C(Nc1cc(Cl)cc(Cl)c1)c1coc(=O)c(Br)c1 |  | inconclusive: 39.8 µM [inhibitor, single point] |
| CCCCCCNC(=O)c1c(O)c2cccc3c2n(c1=O)CCC3 |  | inconclusive: 5.01 µM [inhibitor, single point] |
| O=C(CCS(=O)(=O)c1ccc(Br)cc1)NCc1ccco1 | inactive: -30.8% |  |
| COc1ccc(C(=O)COC(=O)c2ccc(Cl)nc2)c(OC)c1 | inactive: -31% |  |
| COc1ccc(C(=O)Nc2cc(OC)c(NC(=O)c3ccco3)cc2OC)cc1 |  | inconclusive: 12.6 µM [inhibitor, partial curve, poor fit] |
| CCOC(=O)c1nn2c(C(F)(F)F)cc(-c3ccc(OC)cc3)nc2c1Br |  | inconclusive: 37.7 µM [inhibitor, single point] |
| O=C(Nc1ccc(-c2nc3ccccc3o2)c(O)c1)c1cc(-n2cnnc2)ccc1Cl | inactive: -2.63% |  |
| CCOc1cc(CNc2ccccc2)cc(Br)c1OCc1ccc(F)cc1 |  | inconclusive: 3.16 µM [inhibitor, single point] |
| CC(C)C(=O)Nc1c(O)c2ccccc2[nH]c1=O | inactive: -2.89% |  |
| CCn1c(O)c(C=Nc2ccccc2)sc1=O |  | inconclusive: 31.6 µM [inhibitor, single point] |
| O=C(NCc1ccco1)C1CCC(CNS(=O)(=O)c2cccc3cccnc23)CC1 (stereo unspecified) |  | inconclusive: 1.26 µM [inhibitor, full curve, poor fit] |
| Cc1cc(C)nc(S/C=C/C(=O)c2ccccc2F)n1 |  | inconclusive: 8.91 µM [inhibitor, single point] |
| Cc1noc(C)c1COc1cccc(C(=O)OCC(=O)NCCN2C(=O)CSC2=O)c1 |  | inconclusive: 35.5 µM [inhibitor, single point] |
| Cc1cccc(N2CCN(C(=O)c3cn4ccccc4n3)CC2C)c1 (stereo unspecified) |  | inconclusive: 0.199 µM [inhibitor, full curve, poor fit] |
| Cc1c(C#N)c(N=CN(C)C)c(C(=O)c2ccccc2)n1-c1ccccc1 |  | inconclusive: 44.7 µM [inhibitor, single point] |

| Structure (SMILES) | activity change, negative = inhibition | Potency |
| --- | --- | --- |
| CCn1cc(C(=O)O)c(=O)c2cc(F)c(N3CCN(S(=O)(=O)c4ccc(Br)cc4)CC3)cc21 | inactive: -5.91% |  |
| O=C(CN1C(=O)CSC1=O)Nc1ccc2c(c1)OCCO2 | inactive: -1.52% |  |
| Cc1ccc(NC(=O)C2CC(=O)n3c(nc4ccccc43)N2)cc1Cl (stereo unspecified) |  | inconclusive: 44.7 µM [inhibitor, single point] |
| CCOC(=O)C1OC1C(=O)N[C@@H](CC(C)C)C(=O)NCCC(C)C (stereo partly specified) | inactive: 0.71% |  |
| CC1(C)N([O-])C2=C(CCCC2)[N+]1=O |  | inconclusive: 1.58 µM [inhibitor, full curve, poor fit] |
| Cc1cc(C)n(Cc2ccc(C(=O)O)cc2)n1 | inactive: 1.7% |  |
| CCOC(=O)N1CCN(c2cc(NCCC(=O)O)c3c4c(onc24)-c2ccccc2C3=O)CC1 |  | inconclusive: 39.8 µM [inhibitor, single point] |
| CC1Cc2cc(C(=O)O)ccc2O1 (stereo unspecified) | inactive: -11.8% |  |
| CN(/C=C/C(=C/C=[N+](C)c1ccccc1)OCCCS(=O)(=O)[O-])c1ccccc1 |  | inconclusive: 39.8 µM [inhibitor, single point] |
| O=C(O)c1cc(-c2ccco2)nn1-c1cccc(Cl)c1 |  | inconclusive: 35.5 µM [inhibitor, single point] |
| Cc1c2c(n3c(nc4ccccc43)c1C#N)N(c1ccccc1)CC2 |  | inconclusive: 35.5 µM [inhibitor, single point] |
| CCN(CC)C(=O)c1ccccc1NC(=O)c1cccc(S(=O)(=O)N(CC)CC)c1 | inactive: -1.43% |  |
| O=C(/C=C/c1ccco1)Nc1cccc(NC(=O)/C=C/c2ccco2)n1 |  | inconclusive: 31.6 µM [inhibitor, partial curve] |
| COc1ccc(/C=C/C2=CCN(Cc3ccc(OC)cc3)CC2)cc1 | inactive: 4.15% |  |
| Cc1cc(=O)[nH]c2cc(O)ccc12 | inactive: 0.689% |  |
| O=C(COC(=O)c1ccc2c(c1Cl)C(=O)c1ccccc1C2=O)NC1CCCCC1 |  | inconclusive: 39.8 µM [inhibitor, single point] |
| Cc1cccc(NC(=O)CN2C(=O)N/C(=C/c3ccc(C)o3)C2=O)c1 |  | inconclusive: 31.6 µM [inhibitor, single point] |
| Cc1onc(-c2ccccc2)c1C(=O)Nc1nc(-c2cc(F)ccc2F)cs1 |  | inconclusive: 12.6 µM [inhibitor, partial curve] |
| O=C(/C=C/c1ccco1)c1cccnc1 | inactive: 8.62% |  |
| Cc1ccccc1Nc1cc(C)c2c(O)cccc2n1 |  | inconclusive: 2.51 µM [inhibitor, full curve, poor fit] |
| COc1ccc(-c2nc(CS(=O)CC(=O)NCc3cccnc3)c(C)o2)cc1 (stereo unspecified) |  | inconclusive: 50.1 µM [inhibitor, partial curve, poor fit] |
| Fc1ccc(CN(C2=NCCN2)c2c(Cl)cccc2Cl)cc1 | inactive: -4.39% |  |
| O=C(Cc1ccccc1)NNc1ccc2ccccc2c1 | inactive: -2.1% |  |

Record cards, as listed above:
Cc1cc(=O)[nH]c2cc(O)ccc12 is entered as activity change, negative = inhibition: inactive: 0.689%
CN(/C=C/C(=C/C=[N+](C)c1ccccc1)OCCCS(=O)(=O)[O-])c1ccccc1 is entered as Potency: inconclusive: 39.8 µM [inhibitor, single point]
